Measured values published in the supplement of paper PMC3047530.
The list shows a part of the results. Repeats are few or missing, and single values can be far off.

These compounds were tested on Geomyces destructans (assay: growth inhibition relative to DMSO control; higher = stronger growth inhibition). Conditions: 10 µM; 15 °C; incubation time 10 days.
`CC(=O)O[C@H]1C[C@@]2(C)[C@@H](C[C@@H](O)[C@H]3[C@@]4(C)CC[C@@H](O)[C@@H](C)[C@@H]4CC[C@@]32C)/C1=C(\CCC=C(C)C)C(=O)O` gave a growth inhibition of 6.2%.
`CC(=O)N[C@@H](CS)C(=O)O` showed a growth inhibition of -10.1%.
`CNCCCC12CCC(c3ccccc31)c1ccccc12` gave a growth inhibition of 4.06%.
`OC(c1cc(C(F)(F)F)nc2c(C(F)(F)F)cccc12)C1CCCCN1` (stereo not drawn) showed a growth inhibition of -2.53%.
For `O=C(O[C@@H]1Cc2c(O)cc(O)cc2O[C@@H]1c1ccc(O)c(O)c1)c1cc(O)c(O)c(O)c1`, the growth inhibition was 2.28%.
With `CCCCCC(=O)O[C@]1(C(C)=O)CC[C@H]2[C@@H]3CCC4=CC(=O)CC[C@]4(C)[C@H]3CC[C@@]21C` the growth inhibition was 3.75%.
Work on `COc1ccc(C(=O)O)c(O)c1OC` yielded a growth inhibition of -2.67%.
`Cc1cc(C)cc(OCC2CNC(=O)O2)c1` (stereo not drawn) gave a growth inhibition of -12.2%.
With `C[C@]12C=CC(=O)C=C1CC[C@H]1[C@@H]3C[C@@H](O)[C@](O)(C(=O)CO)[C@@]3(C)C[C@H](O)[C@@]12F` the growth inhibition was -15.7%.
With `CC1(C)O[C@@H]2C[C@H]3[C@@H]4CCC5=CC(=O)CC[C@]5(C)[C@@]4(F)[C@@H](O)C[C@]3(C)[C@]2(C(=O)CCl)O1` the growth inhibition was -11.4%.
For `O=C(O)C=C1CCCc2ccccc2C1O` (stereo not drawn), the growth inhibition was -7.83%.
Work on `CC(=O)CCCCn1c(=O)c2c(ncn2C)n(C)c1=O` yielded a growth inhibition of -14.6%.
`C=C1[C@@H]([C@@]2(C)C=CC(=O)C(C)(C)[C@@H]2CC(=O)OC)CC[C@@]2(C)[C@H](c3ccoc3)OC(=O)[C@H]3O[C@]132` gave a growth inhibition of 11.1%.
With `O=c1c(-c2ccc(O)cc2)coc2cc(O)ccc12` the growth inhibition was -1.11%.
In the case of `CCN1CCCC(OC(=O)C(c2ccccc2)c2ccccc2)C1` (stereo not drawn), the growth inhibition is reported as -7.98%.
For `Nc1ccc(C(=O)O)cc1`, the growth inhibition was -39.1%.
In the case of `CC(C)c1ccc2c(c1)CC[C@H]1[C@](C)(CN)CCC[C@]21C`, the growth inhibition is reported as -11.7%.
`O=C(O)c1ccc(S(=O)(=O)N(Cl)Cl)cc1` showed a growth inhibition of -1.59%.
With `O=C(Oc1ccccc1C(=O)O)c1ccccc1O` the growth inhibition was -5.74%.
`CCCCCNC(=N)N/N=C/c1c[nH]c2ccc(OC)cc12` gave a growth inhibition of -11.5%.
Compound `C/C1=C2/[N-][C@H]([C@H](CC(N)=O)[C@@]2(C)CCC(=O)NC[C@@H](C)OP(=O)([O-])O[C@H]2[C@@H](O)[C@@H](n3cnc4cc(C)c(C)cc43)O[C@@H]2CO)[C@]2(C)N=C(/C(C)=C3N=C(/C=C4N=C1[C@@H](CCC(N)=O)C\4(C)C)[C@@H](CCC(N)=O)[C@]\3(C)CC(N)=O)[C@@H](CCC(N)=O)[C@]2(C)CC(N)=O.[Co]` has a growth inhibition of -8.7%.
`O=C(CCc1ccc(O)cc1)c1c(O)cc(O)cc1O[C@@H]1OC(CO)[C@@H](O)[C@@H](O)C1O` (stereo partly drawn) was tested, and the growth inhibition was -11.7%.
Compound `COc1ccc(-c2coc3cc(O)ccc3c2=O)c(OC)c1O` has a growth inhibition of -9.24%.
`CCCC1O[C@@H]2C[C@H]3[C@@H]4CCC5=CC(=O)C=C[C@]5(C)[C@H]4[C@@H](O)C[C@]3(C)[C@]2(C(=O)CO)O1` (stereo partly drawn) showed a growth inhibition of -14.7%.
Compound `CCC/C=C/C=C/C1C[C@@H](O)[C@@H](O)C(=O)[C@H]1C=O` (stereo partly drawn) has a growth inhibition of -6.12%.
In the case of `C=C1C(=O)O[C@H]2C[C@@H]1C(OC(C)=O)C/C(C)=C/CC/C(C)=C/CC[C@@]2(C)O` (stereo partly drawn), the growth inhibition is reported as 1.06%.
`CC(C)c1c(O)ccc2c1CC[C@H]1C(C)(C)CCC[C@]21C` showed a growth inhibition of -2.22%.
`CC(C(=O)O)c1cccc(C(=O)c2ccccc2)c1` (stereo not drawn) was tested, and the growth inhibition was -9.6%.
`CC1(O)/C=C\C=C(\CO)C2CC(C)(C)C2(O)CC1` (stereo not drawn) showed a growth inhibition of -35.9%.
In the case of `CCC(C(N)=O)c1ccccc1` (stereo not drawn), the growth inhibition is reported as -24.4%.
Work on `COc1cc2c(cc1OC)C1(O)C(=O)c3ccc(O)c(C(=O)O)c3OC1CO2` (stereo not drawn) yielded a growth inhibition of -11.9%.
`CC1=CCC2C3(C)C1=CC(=O)OC3CC1C(C)(C)CC(O)C(O)C12C` (stereo not drawn) [MEROGEDUNIN, 3-DEOXO-1alpha,3alpha-DIHYDROXYDIHYDRO-] showed a growth inhibition of -9.65%.
`CC1(C)CC23C(=O)CCC(O)C2(C)CCC13` (stereo not drawn) was tested, and the growth inhibition was -5.57%.
`CC(C)=CC1C(CO)C1(C)C` (stereo not drawn) gave a growth inhibition of -5.18%.
`Cc1occc(=O)c1O` showed a growth inhibition of -9.9%.
`C#C[C@]1(O)CC[C@H]2[C@@H]3CCc4cc(O)ccc4[C@H]3CC[C@@]21C` gave a growth inhibition of -9.44%.
`CCCCCN(CCCCC)C(=O)C(CCC(=O)O)NC(=O)c1ccc(Cl)c(Cl)c1` (stereo not drawn) was tested, and the growth inhibition was -25.4%.
`CC(C)NCC(O)c1ccc(O)c(O)c1` (stereo not drawn) was tested, and the growth inhibition was -1.29%.
In the case of `NCCSSCCN`, the growth inhibition is reported as -3.09%.
`Nc1nc2c(ncn2COCCO)c(=O)[nH]1` was tested, and the growth inhibition was -6.38%.
`CC1(C)C(=O)[C@H]2C[C@]3(O)C4=CC(=O)O[C@@H](c5ccoc5)[C@@]4(C)CCC3[C@](C)(C2=O)[C@H]1CC(=O)O` (stereo partly drawn) gave a growth inhibition of -11.1%.
With `Cc1ccc(C(C)C)c(O)c1C(=O)O` the growth inhibition was 9.74%.
In the case of `COc1ccc(C(=O)CC(=O)c2ccc(C(C)(C)C)cc2)cc1`, the growth inhibition is reported as -24.7%.
With `C#CCCCCCCCCCCCC(O)CC(O)COC(C)=O` (stereo not drawn) the growth inhibition was -8.27%.
`CC1(C)C(=O)C=CC2(C)C1C=CC1(C)C2CCC2(C)C(c3ccoc3)OC(=O)C3OC312` (stereo not drawn) was tested, and the growth inhibition was -6.49%.
Compound `CC(=O)OCC(=O)[C@@]1(O)[C@H](C)C[C@H]2[C@@H]3CCC4=CC(=O)C=C[C@]4(C)[C@@]3(F)[C@@H](O)C[C@@]21C` has a growth inhibition of -5.29%.
`COc1c(N2C[C@@H]3CCCN[C@@H]3C2)c(F)cc2c(=O)c(C(=O)O)cn(C3CC3)c12` gave a growth inhibition of -28.8%.
In the case of `COc1ccc(C(=O)c2ccccc2)c(O)c1`, the growth inhibition is reported as -11.4%.
`CCN(CC)CCOc1ccc2c(c1)C(=O)c1cc(OCCN(CC)CC)ccc1-2` showed a growth inhibition of -7.48%.
`O=C(O)Cc1cc(I)c(Oc2cc(I)c(O)c(I)c2)c(I)c1` showed a growth inhibition of -3.58%.
With `COC(=O)CC1C(C)(C)C(OC(C)=O)[C@@H]2[C@@H](OC(C)=O)[C@]34O[C@@]2(O)[C@]1(C)C3CC[C@]1(C)C4=CC(=O)O[C@H]1c1ccoc1` (stereo partly drawn) the growth inhibition was -16.6%.
For `NC[C@H]1O[C@H](O[C@H]2[C@H](O)[C@@H](O[C@H]3O[C@H](CO)[C@@H](O)[C@H](N)[C@H]3O)[C@H](N)C[C@@H]2N)[C@H](O)[C@@H](O)[C@@H]1O`, the growth inhibition was 4.52%.
With `O=c1cc(-c2ccccc2)oc2cc(O)cc(O)c12` the growth inhibition was -3.48%.
With `Nc1c2c(nc3ccccc13)CCCC2` the growth inhibition was -0.94%.
Compound `C/C(=C(\CCOP(=O)(O)O)SC(=O)c1ccccc1)N(C=O)Cc1cnc(C)nc1N` has a growth inhibition of -1.74%.
`C=C/C(C)=C\CC1C(C)(O)CCC2C(C)(C)CCCC21C` (stereo not drawn) gave a growth inhibition of -25.9%.
Compound `CCN(CC)C(=S)SSC(=S)N(CC)CC` has a growth inhibition of -14.3%.
`C=C[C@@]1(C)CC(=O)[C@]2(O)[C@@]3(C)[C@@H](O)CCC(C)(C)[C@@H]3[C@H](O)[C@H](OC(C)=O)[C@@]2(C)O1` showed a growth inhibition of -4.37%.
